Results on four molecules are retold here after US11236042B2, “Methylmenthol derivative and cool-sensation imparter composition containing same” (TAKASAGO INTERNATIONAL CORPORATION, priority 2017, dated 2022).

The nature of the series: Sensory evaluation of 30 ppm aqueous solution by three flavorists. Type of series: in vivo, human. The method, then: The sensory evaluation was performed by comparing the exemplary compound (1-1) with the so far known comparative compounds 1 to 4. Comparative compounds 1, 3, and 4 were synthesized according to the method described in WO 2016/153011 A1, and comparative compound 2 was synthesized according to the method described in WO 2005/020897 A1. The exemplary compound (1-1) and comparative compounds 1 to 4 were separately prepared into a 30 ppm aqueous solution, and the aqueous solution was used to perform the evaluation.
The evaluation was performed by three flavorists. The aqueous solution was taken into the mouth and spat out after the mouth was rinsed, and intensity, persistence, and quality of a cool-feeling in the oral cavity were evaluated.
A 30 ppm aqueous solution of the exemplary compound (1-2) was prepared and used to perform the evaluation.
A 30 ppm aqueous solution of the exemplary compound (1-3) was prepared and used to perform the evaluation.
A 30 ppm aqueous solution of the exemplary compound (1-5) was prepared and used to perform the evaluation.
On to `CC(C)C1CCC(C)(C)CC1C(=O)NCC(O)c1ccccc1` (stereo not shown) [Exemplary Compound 1-1, N-(2-hydroxy-2-phenylethyl)-2-isopropyl-5,5-dimethyl cyclohexane carboxamide], for which the “bitterness / miscellaneous tastes” value is given as “less than those of the comparative compounds 2 to 4”; the “burning and tingling feelings” value is on record as “weaker than those of the comparative compounds 1 to 4”; the “quality of the cool-feeling” value is “sharper and richer than those produced by the comparative compounds 1 to 4”.

Consider `CC(C)C1CCC(C)(C)CC1C(=O)NC[C@@H](O)c1ccccc1` (stereo partly drawn) [Exemplary Compound 1-2, N—((S)-2-hydroxy-2-phenylethyl)-2-isopropyl-5,5-dimethyl cyclohexane carboxamide], for which the “bitterness / miscellaneous tastes” value is “not felt”; the “burning and tingling feelings” value is recorded as “not felt”; the “quality of the cool-feeling” value was “sharp and rich”.

On to `CC(C)C1CCC(C)(C)CC1C(=O)NC[C@H](O)c1ccccc1` (stereo partly drawn) [Exemplary Compound 1-3, N—((R)-2-hydroxy-2-phenylethyl)-2-isopropyl-5,5-dimethyl cyclohexane carboxamide], for which the “bitterness / miscellaneous tastes” value was “not felt”; the “burning and tingling feelings” value is reported as “not felt”; the “quality of the cool-feeling” value was “sharp and rich”.

With `CC(C)C1CCC(C)(C)CC1C(=O)NCC(=O)c1ccccc1` (stereo not shown) [Exemplary Compound 1-5, 2-isopropyl-5,5-dimethyl-N-(2-oxo-2-phenylethyl) cyclohexane carboxamide], the “burning and tingling feelings” value is on record as “hardly felt”.
